According to patent publication US20080064728A1, “Heterocyclic Compounds Useful as Dpp-Iv Inhibitors” (SANTHERA PHARMACEUTICALS (SCHWEIZ) AG, priority 2004, published 2008):
Structures can show the parent of a compound that is named as a salt. Some entries share one result that the patent states for a list of compounds.

Protein sequences, listed by entry. Tags and fused reporters are not part of them. Residues count along the entry.
UniProt P27487, 31-766: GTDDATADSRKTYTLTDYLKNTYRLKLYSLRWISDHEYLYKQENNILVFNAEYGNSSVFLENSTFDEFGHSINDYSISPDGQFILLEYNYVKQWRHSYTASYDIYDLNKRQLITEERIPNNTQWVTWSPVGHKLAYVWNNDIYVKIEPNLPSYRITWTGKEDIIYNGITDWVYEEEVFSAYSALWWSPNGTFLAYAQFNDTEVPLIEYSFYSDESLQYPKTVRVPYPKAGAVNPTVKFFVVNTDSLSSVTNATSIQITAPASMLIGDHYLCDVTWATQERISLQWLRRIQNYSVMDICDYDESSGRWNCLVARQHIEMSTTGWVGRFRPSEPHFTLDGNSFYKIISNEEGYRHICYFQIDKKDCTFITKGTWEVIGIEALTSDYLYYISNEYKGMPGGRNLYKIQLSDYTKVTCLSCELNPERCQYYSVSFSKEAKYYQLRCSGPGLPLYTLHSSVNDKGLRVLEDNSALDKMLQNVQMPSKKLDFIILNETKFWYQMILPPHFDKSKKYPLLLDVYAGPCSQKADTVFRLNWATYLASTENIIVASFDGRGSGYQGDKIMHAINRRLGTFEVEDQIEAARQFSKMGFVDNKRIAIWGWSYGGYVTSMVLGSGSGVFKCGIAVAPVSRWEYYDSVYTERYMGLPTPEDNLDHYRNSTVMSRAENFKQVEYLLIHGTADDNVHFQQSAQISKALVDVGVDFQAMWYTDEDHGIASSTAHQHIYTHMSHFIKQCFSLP

Target: T1, DPP-IV (Homo sapiens, UniProt P27487)
T1 construct: Soluble human DPP-IV lacking the transmembrane anchor (Gly31-Pro766); Pre-Pro-alpha-mating factor secretion leader (N, cleaved yes); made in house
Test: Continuous fluorimetric DPP-IV peptidase inhibition assay (cleavage of Gly-Pro-AMC)
Type: biochemical
Conditions: 50 pM DPP-IV, 16 μM Gly-Pro-AMC substrate, pH 7.4, 25° C., 1% DMSO; assays carried out with human and porcine DPP-IV

Compound | IC50
N[C@@H](Cc1nc(-c2ccc(S(N)(=O)=O)cc2)no1)Cc1ccccc1F [Example 9, 4-{5-[(2R)-Amino-3-(2-fluorophenyl)-propyl]-[1,2,4]oxadiazol-3-yl}-benzenesulphonamide, trifluoroacetate] | ≤ 2000 nM
N[C@@H](Cc1nc(-c2ccccc2)no1)Cc1ccccc1F [Example 6, 2-(2-Fluorophenyl)-(1R)-(3-phenyl-[1,2,4]oxadiazol-5-ylmethyl)-ethylamine. hydrochloride] | ≤ 2000 nM
N[C@@H](Cc1nc(-c2ccccn2)no1)Cc1ccccc1F [Example 7, 2-(2-Fluorophenyl)-(1R)-(3-pyridin-2-yl-[1,2,4]oxadiazol-5-ylmethyl)-ethylamine] | ≤ 2000 nM
N[C@@H](Cc1nc(-c2cccc(Cl)c2)no1)Cc1ccccc1F [Example 8, (1R)-[3-(3-Chlorophenyl)-[1,2,4]oxadiazol-5-ylmethyl]-2-(2-fluorophenyl)-ethylamine. trifluoroacetate] | ≤ 2000 nM
CS(=O)(=O)c1ccc(-c2noc(C[C@H](N)Cc3ccccc3F)n2)cc1 [Example 10, 2-(2-Fluorophenyl)-(1R)-[3-(4-methanesulphonylphenyl)-[1,2,4]oxadiazol-5-ylmethyl]-ethylamine, hydrochloride] | ≤ 2000 nM
